{"sequences": {"note": "By UniProt entry, the sequences of proteins in these tests, tags left out. Residues count along the entry.", "UniProt P09038, residues 143-288": "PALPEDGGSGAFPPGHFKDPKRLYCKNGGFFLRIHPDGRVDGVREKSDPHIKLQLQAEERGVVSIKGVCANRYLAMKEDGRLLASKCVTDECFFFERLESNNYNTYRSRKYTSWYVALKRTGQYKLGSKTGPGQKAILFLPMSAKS", "UniProt O88207, residues 37-1838": "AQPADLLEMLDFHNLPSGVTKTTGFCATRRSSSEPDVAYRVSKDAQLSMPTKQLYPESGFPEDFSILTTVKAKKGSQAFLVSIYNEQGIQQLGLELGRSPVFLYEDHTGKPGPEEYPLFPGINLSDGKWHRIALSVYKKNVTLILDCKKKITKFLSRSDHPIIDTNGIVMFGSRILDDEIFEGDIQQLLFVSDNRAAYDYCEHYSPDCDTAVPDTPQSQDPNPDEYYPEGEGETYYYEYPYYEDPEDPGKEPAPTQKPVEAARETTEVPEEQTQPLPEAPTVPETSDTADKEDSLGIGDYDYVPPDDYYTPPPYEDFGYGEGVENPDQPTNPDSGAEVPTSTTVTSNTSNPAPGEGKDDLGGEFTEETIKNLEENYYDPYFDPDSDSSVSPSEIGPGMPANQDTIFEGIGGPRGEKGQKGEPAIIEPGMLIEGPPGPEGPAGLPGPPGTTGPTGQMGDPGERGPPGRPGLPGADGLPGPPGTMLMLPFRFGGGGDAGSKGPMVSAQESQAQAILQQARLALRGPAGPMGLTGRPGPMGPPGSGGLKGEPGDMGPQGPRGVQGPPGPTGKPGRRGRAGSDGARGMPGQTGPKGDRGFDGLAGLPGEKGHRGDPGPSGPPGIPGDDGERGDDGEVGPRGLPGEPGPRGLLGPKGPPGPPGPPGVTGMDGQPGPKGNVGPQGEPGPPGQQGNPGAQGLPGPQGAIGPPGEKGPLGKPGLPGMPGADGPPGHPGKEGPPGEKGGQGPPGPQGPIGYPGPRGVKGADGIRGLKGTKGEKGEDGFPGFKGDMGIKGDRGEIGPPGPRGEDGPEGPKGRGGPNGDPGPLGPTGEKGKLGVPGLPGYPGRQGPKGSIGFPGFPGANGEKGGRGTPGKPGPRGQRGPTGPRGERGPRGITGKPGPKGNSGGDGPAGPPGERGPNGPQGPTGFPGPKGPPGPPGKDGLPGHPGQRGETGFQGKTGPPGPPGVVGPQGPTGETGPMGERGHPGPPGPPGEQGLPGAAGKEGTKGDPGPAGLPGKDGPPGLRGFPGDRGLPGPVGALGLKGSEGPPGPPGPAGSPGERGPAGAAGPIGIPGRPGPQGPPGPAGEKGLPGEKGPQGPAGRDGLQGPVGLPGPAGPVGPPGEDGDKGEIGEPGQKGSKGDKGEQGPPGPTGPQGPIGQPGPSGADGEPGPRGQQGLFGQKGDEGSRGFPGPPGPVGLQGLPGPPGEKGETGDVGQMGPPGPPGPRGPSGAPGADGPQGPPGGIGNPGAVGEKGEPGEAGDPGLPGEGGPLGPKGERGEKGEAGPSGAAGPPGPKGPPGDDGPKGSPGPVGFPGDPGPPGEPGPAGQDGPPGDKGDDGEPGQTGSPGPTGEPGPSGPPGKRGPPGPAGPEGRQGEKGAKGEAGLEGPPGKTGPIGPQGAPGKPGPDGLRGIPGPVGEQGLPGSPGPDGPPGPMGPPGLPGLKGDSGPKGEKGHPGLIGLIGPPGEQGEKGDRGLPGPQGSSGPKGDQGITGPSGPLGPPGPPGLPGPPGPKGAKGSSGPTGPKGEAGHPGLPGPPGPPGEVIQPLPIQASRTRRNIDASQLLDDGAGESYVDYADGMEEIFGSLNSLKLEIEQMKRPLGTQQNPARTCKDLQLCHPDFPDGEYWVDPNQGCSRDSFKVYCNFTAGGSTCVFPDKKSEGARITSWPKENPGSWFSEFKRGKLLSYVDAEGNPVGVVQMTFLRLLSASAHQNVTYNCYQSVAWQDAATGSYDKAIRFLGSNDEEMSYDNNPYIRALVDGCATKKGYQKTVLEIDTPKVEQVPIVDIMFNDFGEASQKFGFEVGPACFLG"}, "source": "paper PMC5253704", "molecules": {"B1": {"name": "recombinant glypican-1 (R&D Systems) (protein, UniProt P35052 24-530)", "chain": "DPASKSRSCGEVRQIYGAKGFSLSDVPQAEISGEHLRICPQGYTCCTSEMEENLANRSHAELETALRDSSRVLQAMLATQLRSFDDHFQHLLNDSERTLQATFPGAFGELYTQNARAFRDLYSELRLYYRGANLHLEETLAEFWARLLERLFKQLHPQLLLPDDYLDCLGKQAEALRPFGEAPRELRLRATRAFVAARSFVQGLGVASDVVRKVAQVPLGPECSRAVMKLVYCAHCLGVPGARPCPDYCRNVLKGCLANQADLDAEWRNLLDSMVLITDKFWGTSGVESVIGSVHTWLAEAINALQDNRDTLTAKVIQGCGNPKVNPQGPGPEEKRRRGKLAPRERPPSGTLEKLVSEAKAQLRDVQDFWISLPGTLCSEKMALSTASDDRCWNGMARGRYLPEVMGDGLANQINNPEVEVDITKPDMTIRQQIMQLKIMTNRLRSAYNGNDVDFQDASDDGSGSGSGDGCLDDLCSRKVSRKSSSSRTPLTHALPGLSEQEGQKTS"}}, "key": {"[1]": {"molecular_target": "T1, glypican-1, endogenous in WT/PyMT mouse mammary tumours (mouse (endogenous in MMTV-PyMT tumours)) (UniProt Q9QZF2)", "T1 sequence": "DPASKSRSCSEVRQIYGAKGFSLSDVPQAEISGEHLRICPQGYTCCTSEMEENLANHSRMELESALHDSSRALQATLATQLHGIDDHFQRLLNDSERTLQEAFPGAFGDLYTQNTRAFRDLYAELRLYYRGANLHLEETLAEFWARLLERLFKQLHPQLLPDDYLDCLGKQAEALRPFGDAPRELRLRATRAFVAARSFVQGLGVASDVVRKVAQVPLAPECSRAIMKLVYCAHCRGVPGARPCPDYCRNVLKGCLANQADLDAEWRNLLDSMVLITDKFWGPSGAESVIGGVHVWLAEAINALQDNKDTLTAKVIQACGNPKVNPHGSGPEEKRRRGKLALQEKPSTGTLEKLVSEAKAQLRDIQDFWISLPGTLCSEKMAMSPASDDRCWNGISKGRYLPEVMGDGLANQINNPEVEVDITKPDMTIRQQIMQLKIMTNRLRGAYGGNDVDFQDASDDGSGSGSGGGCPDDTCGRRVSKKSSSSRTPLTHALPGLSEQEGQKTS", "assay": "co-IP; immunoprecipitation of endogenous proteins from WT/PyMT (and KO/PyMT) tumour extracts in RIPA buffer, 0.3 mg protein per ml, 900 μl; protein G or A agarose, overnight 4 °C; immunoblot"}, "[2]": {"molecular_target": "T2, recombinant glypican-1 (R&D Systems) (UniProt P35052)", "T2 sequence": "B1 chain", "assay": "co-IP; combinations of 50 ng GPC1, 100 ng α3(V)-NTD and 15 ng FGF2 preincubated 3 h in buffer A (20 mM Tris-HCl pH 7.5, 150 mM NaCl, 1 mM ZnCl2, 1 mM CaCl2, 1 mM MgCl2, 0.1% Triton X-100, 1 μg/ml BSA), antibody 2 h, protein G or A agarose overnight 4 °C; immunoblot; both purified"}, "[3]": {"molecular_target": "recombinant FGF2 (UniProt P09038)", "assay": "co-IP; combinations of 50 ng GPC1, 100 ng α3(V)-NTD and 15 ng FGF2 preincubated 3 h in buffer A (20 mM Tris-HCl pH 7.5, 150 mM NaCl, 1 mM ZnCl2, 1 mM CaCl2, 1 mM MgCl2, 0.1% Triton X-100, 1 μg/ml BSA), antibody 2 h, protein G or A agarose overnight 4 °C; immunoblot; both purified"}}, "note": "Results are given in words; binding and its absence hold for the method and conditions named. For part of these data: In cells and extracts the contact can be indirect. Some results given as binding are weak or reduced against the parent protein; the word gives no strength."}
{"molecule": "α1(V) collagen chain, endogenous in WT/PyMT mouse mammary tumours (from UniProt O88207 37-1838)", "values": [{"measurement": "binding", "setting": "[1]", "result": "binds"}]}
{"molecule": "recombinant FGF2 (from UniProt P09038 143-288) (ligand)", "values": [{"measurement": "binding", "setting": "[2]", "result": "binds"}]}
{"molecule": "B1", "values": [{"measurement": "binding", "setting": "[3]", "result": "binds"}]}
